These results are taken from PubChem BioAssay AID1508600 (Functional Genomics Laboratory (NCATS/FGL), 2020).

About 3,700 (7%) of roughly 53,000 sequences were called active.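 The calls were made as follows: active = gene knockdowns whose robust z-score for IL-1 alpha signal is at least 2 or at most -2, so actives lie on both sides; inactive = the rest.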 The list shows a part of the results.

This assay is described as follows: Components of the Cytosolic LPS Sensing Pathway: Gene Identification via Genome-wide siRNA Screen.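 Also: robust z of the log signal after scaling to non-targeting control siRNA wells of the plate.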 Particulars: RAW264.7 macrophages, IL-1a HTRF, actives lie on both sides, screened at 100 nM (by protocol), cells primed 5 h with Pam3CSK4 first. A digest of the protocol: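 Read-out: IL-1a HTRF on supernatant, divided by plate negative-control median ×100, log-transformed and converted to robust z-score. Cells were RAW264.7 given 100 nM siRNA, Pam3CSK4-primed 5 hours, then LipidA-transfected 24 hour.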
As to GGGUAAACUUCAUGAUCCATT against Kif5b, the z-score is inactive: -0.0506. The figure for GGAAUAUCUCUUUCAAUGATT against Msn is inactive: -0.805; for GGGUACCAUAGGAACCAUGTT against Yipf7 it is inactive: -0.732.

As to UUUAGCCUUGCAUACGGACTT against Sfswap, the z-score is inactive: 0.642.

Consider GGUGCAAACUGAGGUCCUGTT against Ebna1bp2, for which the z-score was inactive: 1.67. The figure for GGAUAUUAGUGUGGAGACUTT against Sptbn1 is inactive: 0.284; for GGGUGCACUGGCUAAUAUATT against H2-Ea it is inactive: 1.13; for GGUCAGAGUACAGCUCCGUTT against Tpsab1 it is inactive: -1.22. The figure for GCAGCCUGUACAGUUCUAUTT against Gpr139 is inactive: -0.155.

In the case of GGGACACUGUGUCCCUUCUTT against Tmem189, the z-score is inactive: -0.0937. In the case of GCACUUUCGUAGAUCACCATT against Bri3bp, the z-score is inactive: 0.174. The figure for GGUGAUACUCAGUUUAAGCTT against Pms2 is inactive: -1.02; for GGAGUGCGCUUGAAUAUGATT against Lamp1 it is inactive: -1.48.

On to GCAAAUGAUACAGUGGAUUTT against Ctnnd1, for which the z-score is inactive: 0.0103. The same measure for CGAGAUCAAACCUGGCUUATT against Adarb1: inactive: 1.26. For GCAUGCUGAUGGACUGUAATT against Rcc2, the z-score is inactive: 0.447. Consider GAGAGUAUCACCUUCAUUUTT against Kdf1, for which the z-score was inactive: -0.716. The same measure for GCGGCUCUUUAAGAUCCAGTT against Fbxw5: inactive: 0.351; for GGUAUAUAACCACUCUGUCTT against Dot1l: inactive: -1.08; for GCGUGGUUUCUGAAUACAUTT against Nt5e: active: 6.67.

For the sequence “GGAGAAUGACAUCUUGAGCTT against D5Ertd579e”, the z-score was inactive: 0.438. In the case of CCCAUUACGCAAAUUGUUCTT against Rin3, the z-score was active: -2.31. The figure for GGAUUUUGCCUAAAAUACATT against Sephs1 is inactive: 0.179; for GGAUUGGUUCAUGACCUGATT against Trim52 it is inactive: -0.814. Take “CGGCCUGUUAUAAACCUGCTT against 4933409K07Rik”: the z-score was inactive: -0.168.

As for GGUUCAUCGUUUCAAGUUUTT against Catsperb, the z-score is inactive: 0.0531. Consider GCUACUAGUAUAUGUACUCTT against Psg28, for which the z-score is inactive: 1.58. The same measure for GGACAAGAAGAAAGAAAAGTT against Tmbim6: inactive: -1.07; for GGUAGCUGUAGUUCUAACUTT against Tmem263: inactive: 0.742. Take GGUUUCUGCAUGAAAAUCATT against Irak4: the z-score was inactive: -1.78. With GGAAGAAUCUUCCUGUUAATT against Chic2, the z-score is inactive: -0.358.

For GGGCCUUUUUAUCCAACUUTT against Mcts1, the z-score was inactive: 0.195.

As to GGAGGAUUAUCACAAGUCCTT against Anxa6, the z-score is inactive: 0.886. The same measure for GGACUUAGCACCCUCCUAATT against Tnfsf15: inactive: -0.762; for GGCAUAGAAGAGAUGACAGTT against Fabp7: active: -2.18. Take GCUCCCUGUUCUUCACCAUTT against Ifitm1: the z-score was inactive: 0.199. The figure for GGACAUGCUUUCAAUGGAATT against Tshr is inactive: -0.0805; for GCCUUCAACAAAAAGUUCUTT against Olfr137 it is inactive: -0.311; for GCUCAUCCAUUACGAGUUGTT against Dusp18 it is inactive: 0.878. The same measure for “GGAUGGGAACUACAUAAUUTT against 2310057J18Rik”: inactive: -1.89; for GGAAAAACCAAAUUUACCATT against Pno1: inactive: 1.34.

Turning to GGCAGCUUACUAAAGAUCUTT against Got1l1, the z-score is inactive: 1.41. The same measure for GGAGUUUCUGUUUAACAUGTT against Hoxa9: inactive: 1.04; for CGUGCUGUUUGACGGAGUGTT against Eid3: inactive: 0.776; for GGAAAUGACCUACGAAGAATT against Pfkfb4: inactive: -1.26. The same measure for GGAACAGCAGCACUCAGACTT against Insyn1: inactive: 0.1. The figure for GCAAGUUCAACCUCAAGGGTT against Zfp710 is inactive: 1.45. Take GGAAGUUGAAUACAUUGUCTT against Arntl: the z-score was inactive: 0.127. The figure for GGCUUUCGACCAGUUUUUCTT against Hoxa11 is inactive: 0.252. The figure for AGGUGUCUACUUUCCAGCCTT against Slc17a9 is inactive: -0.744. The figure for GGGUAGUUAUGACUAAAUUTT against Etl4 is inactive: 1.31; for GGAUGCUCAAAAUCUACAATT against H2-M11 it is inactive: 1.17. As to GCCUUUCUGAGGGAUUUUGTT against Eif1ad, the z-score is inactive: -1.81. As to GCAGCAUGCCUGAAUAUUUTT against Prcp, the z-score is inactive: 0.172. The same measure for GGAGAAAUACUCAGAAAUGTT against Mael: inactive: -1.64; for GCUGAAUUGCUGGUAGAUUTT against Gtf3c3: inactive: -0.00285. The same measure for CCUUCUUUCGCGUAUGCCUTT against Dll1: inactive: -0.389. Consider GGAAGCAUUCCAAUGGUAGTT against Cyp2c39, for which the z-score is inactive: -0.532. The same measure for CGAACAGGAGAGCCUUAUUTT against H2-DMb2: inactive: -0.416; for GGAUCUCCAGAAAGACUUUTT against Gtf2ird2: inactive: -0.112; for GGAGUUUUGUAUGGUGAAATT against Cd8b1: inactive: -0.0469. On to CCUGUUCAGAUUGUCAACATT against Ptov1, for which the z-score was inactive: -0.0331.

Consider GGUGACACCGCUCAUGAUCTT against Sephs2, for which the z-score was inactive: -1.04. The figure for GCAAUAGCCGGGAGAUAACTT against Itlnb is inactive: 0.378. The figure for GGUGCUCAAUAAACACAUGTT against Mzf1 is inactive: 1.41. The same measure for GGAUCUGAAGUACAAGAAUTT against Tmem216: inactive: 0.475; for CCACAGUAUCUUAAUGCAATT against Eif3e: inactive: -0.893.

Regarding GGACUGAAAUGUCUUAGACTT against Selenow, the z-score is inactive: -1.21.
